# Laboratory results: article PMC8516933
# Protein sequences, listed by entry. Tags and fused reporters are not part of them.
# UniProt O35613: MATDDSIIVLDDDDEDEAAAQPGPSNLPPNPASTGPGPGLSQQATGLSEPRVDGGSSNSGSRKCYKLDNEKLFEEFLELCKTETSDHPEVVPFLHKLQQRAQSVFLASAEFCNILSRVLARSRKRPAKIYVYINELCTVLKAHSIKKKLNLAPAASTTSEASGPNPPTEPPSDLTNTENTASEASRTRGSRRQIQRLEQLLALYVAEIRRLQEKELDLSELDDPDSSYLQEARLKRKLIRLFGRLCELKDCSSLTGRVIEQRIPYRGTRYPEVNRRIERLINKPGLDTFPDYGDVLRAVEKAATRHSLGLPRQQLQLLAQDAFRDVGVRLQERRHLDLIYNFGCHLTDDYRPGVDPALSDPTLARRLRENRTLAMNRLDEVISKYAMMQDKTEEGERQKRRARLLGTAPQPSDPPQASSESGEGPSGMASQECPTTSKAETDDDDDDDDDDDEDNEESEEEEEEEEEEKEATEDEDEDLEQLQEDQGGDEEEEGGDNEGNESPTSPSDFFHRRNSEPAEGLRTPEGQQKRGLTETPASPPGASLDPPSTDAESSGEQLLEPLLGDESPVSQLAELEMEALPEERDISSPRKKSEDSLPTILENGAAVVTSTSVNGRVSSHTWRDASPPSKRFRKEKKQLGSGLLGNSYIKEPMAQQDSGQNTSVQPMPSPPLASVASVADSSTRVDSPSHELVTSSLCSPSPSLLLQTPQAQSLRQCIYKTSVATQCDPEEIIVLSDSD
# Results are given in words; binding and its absence hold for the method and conditions named. In cells and extracts the contact can be indirect. Some binding calls cover weakened binding; strength is not graded here. Sequences can lack the tags named with a protein.
# T1: Morc3 ATP binding mutant (G101A), 3xFLAG tagged (UniProt F7BJB9)
# T1 sequence: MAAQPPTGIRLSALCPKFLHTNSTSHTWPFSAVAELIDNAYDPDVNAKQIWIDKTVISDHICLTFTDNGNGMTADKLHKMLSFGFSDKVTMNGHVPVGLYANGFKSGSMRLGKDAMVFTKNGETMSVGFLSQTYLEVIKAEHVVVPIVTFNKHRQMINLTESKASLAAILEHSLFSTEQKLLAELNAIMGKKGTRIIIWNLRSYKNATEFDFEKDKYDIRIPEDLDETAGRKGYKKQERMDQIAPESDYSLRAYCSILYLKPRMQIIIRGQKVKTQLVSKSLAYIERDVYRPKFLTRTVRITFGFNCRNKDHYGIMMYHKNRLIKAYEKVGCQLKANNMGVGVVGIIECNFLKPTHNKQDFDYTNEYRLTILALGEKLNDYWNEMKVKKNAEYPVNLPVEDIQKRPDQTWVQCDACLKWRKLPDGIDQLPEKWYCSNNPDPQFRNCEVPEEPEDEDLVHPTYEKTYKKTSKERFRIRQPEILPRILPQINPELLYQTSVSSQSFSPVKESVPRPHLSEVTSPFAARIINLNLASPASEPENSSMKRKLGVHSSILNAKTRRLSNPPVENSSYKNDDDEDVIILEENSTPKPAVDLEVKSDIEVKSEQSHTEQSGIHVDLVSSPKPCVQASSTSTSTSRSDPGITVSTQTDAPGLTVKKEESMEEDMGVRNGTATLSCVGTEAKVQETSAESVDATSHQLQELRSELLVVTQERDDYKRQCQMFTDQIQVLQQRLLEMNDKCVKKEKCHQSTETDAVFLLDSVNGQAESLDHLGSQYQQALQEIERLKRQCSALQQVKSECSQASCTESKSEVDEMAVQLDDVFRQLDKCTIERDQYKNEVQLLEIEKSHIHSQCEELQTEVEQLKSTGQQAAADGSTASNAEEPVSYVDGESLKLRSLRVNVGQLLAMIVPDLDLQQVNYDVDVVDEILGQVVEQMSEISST
# T2: Morc3 wild type, 3xFLAG tagged (rescue construct) (UniProt F7BJB9)
# T2 sequence: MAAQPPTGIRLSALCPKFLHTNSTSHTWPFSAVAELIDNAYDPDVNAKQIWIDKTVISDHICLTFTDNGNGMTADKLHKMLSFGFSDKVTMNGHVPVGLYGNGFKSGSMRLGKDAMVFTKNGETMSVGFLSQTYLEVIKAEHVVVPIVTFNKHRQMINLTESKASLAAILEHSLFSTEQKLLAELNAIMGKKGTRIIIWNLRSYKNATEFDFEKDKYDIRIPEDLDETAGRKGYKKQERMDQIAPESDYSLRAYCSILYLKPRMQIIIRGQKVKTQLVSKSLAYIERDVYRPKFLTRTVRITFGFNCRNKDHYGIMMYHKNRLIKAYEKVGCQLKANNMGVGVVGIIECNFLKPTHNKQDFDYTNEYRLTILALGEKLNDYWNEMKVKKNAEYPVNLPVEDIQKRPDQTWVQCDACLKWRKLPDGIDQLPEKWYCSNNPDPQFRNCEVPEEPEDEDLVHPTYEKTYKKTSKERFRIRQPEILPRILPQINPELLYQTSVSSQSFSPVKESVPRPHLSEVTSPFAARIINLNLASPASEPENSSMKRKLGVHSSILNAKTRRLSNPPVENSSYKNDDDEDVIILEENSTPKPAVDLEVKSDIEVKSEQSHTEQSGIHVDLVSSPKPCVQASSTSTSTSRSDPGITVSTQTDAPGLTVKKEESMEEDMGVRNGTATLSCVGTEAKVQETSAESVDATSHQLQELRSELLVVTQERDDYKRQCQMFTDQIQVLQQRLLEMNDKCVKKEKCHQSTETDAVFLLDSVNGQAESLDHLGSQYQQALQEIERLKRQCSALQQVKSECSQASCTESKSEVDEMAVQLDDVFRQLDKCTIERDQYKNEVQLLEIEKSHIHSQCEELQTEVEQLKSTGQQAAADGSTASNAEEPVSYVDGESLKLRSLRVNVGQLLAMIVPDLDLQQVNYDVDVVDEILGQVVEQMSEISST
# B1: Morc3 (endogenous, untagged) (protein, UniProt F7BJB9 1-942)
# chain: MAAQPPTGIRLSALCPKFLHTNSTSHTWPFSAVAELIDNAYDPDVNAKQIWIDKTVISDHICLTFTDNGNGMTADKLHKMLSFGFSDKVTMNGHVPVGLYGNGFKSGSMRLGKDAMVFTKNGETMSVGFLSQTYLEVIKAEHVVVPIVTFNKHRQMINLTESKASLAAILEHSLFSTEQKLLAELNAIMGKKGTRIIIWNLRSYKNATEFDFEKDKYDIRIPEDLDETAGRKGYKKQERMDQIAPESDYSLRAYCSILYLKPRMQIIIRGQKVKTQLVSKSLAYIERDVYRPKFLTRTVRITFGFNCRNKDHYGIMMYHKNRLIKAYEKVGCQLKANNMGVGVVGIIECNFLKPTHNKQDFDYTNEYRLTILALGEKLNDYWNEMKVKKNAEYPVNLPVEDIQKRPDQTWVQCDACLKWRKLPDGIDQLPEKWYCSNNPDPQFRNCEVPEEPEDEDLVHPTYEKTYKKTSKERFRIRQPEILPRILPQINPELLYQTSVSSQSFSPVKESVPRPHLSEVTSPFAARIINLNLASPASEPENSSMKRKLGVHSSILNAKTRRLSNPPVENSSYKNDDDEDVIILEENSTPKPAVDLEVKSDIEVKSEQSHTEQSGIHVDLVSSPKPCVQASSTSTSTSRSDPGITVSTQTDAPGLTVKKEESMEEDMGVRNGTATLSCVGTEAKVQETSAESVDATSHQLQELRSELLVVTQERDDYKRQCQMFTDQIQVLQQRLLEMNDKCVKKEKCHQSTETDAVFLLDSVNGQAESLDHLGSQYQQALQEIERLKRQCSALQQVKSECSQASCTESKSEVDEMAVQLDDVFRQLDKCTIERDQYKNEVQLLEIEKSHIHSQCEELQTEVEQLKSTGQQAAADGSTASNAEEPVSYVDGESLKLRSLRVNVGQLLAMIVPDLDLQQVNYDVDVVDEILGQVVEQMSEISST
# Columns and labels:
# Assay in all cases: co-IP; nuclear extract of rescue ES cell lines, benzonase-digested, 300 mM NaCl, 25 mM NEM; 3xFLAG bait precipitated with anti-FLAG M2 magnetic beads, 4 h; washes with 300 mM NaCl IP buffer; western blot
# [1] = biological target: T1, Morc3 ATP binding mutant (G101A), 3xFLAG tagged
# [2] = biological target: T2, Morc3 wild type, 3xFLAG tagged (rescue construct)
# [3] = biological target: Daxx wild type, 3xFLAG tagged (rescue construct) (UniProt O35613)
molecule,measurement,setting,value
Daxx (endogenous) (from UniProt O35613 1-739),binding,[1],no binding
same,binding,[2],binds
B1,binding,[3],binds
